Results are given in words; binding and its absence hold for the method and conditions named. Binding seen in cells or lysates may run through a third protein. Some binding calls cover weakened binding; strength is not graded here.

By UniProt entry, the sequences of proteins in these tests, tags left out. Residues count along the entry.
UniProt P22695, residues 15-453: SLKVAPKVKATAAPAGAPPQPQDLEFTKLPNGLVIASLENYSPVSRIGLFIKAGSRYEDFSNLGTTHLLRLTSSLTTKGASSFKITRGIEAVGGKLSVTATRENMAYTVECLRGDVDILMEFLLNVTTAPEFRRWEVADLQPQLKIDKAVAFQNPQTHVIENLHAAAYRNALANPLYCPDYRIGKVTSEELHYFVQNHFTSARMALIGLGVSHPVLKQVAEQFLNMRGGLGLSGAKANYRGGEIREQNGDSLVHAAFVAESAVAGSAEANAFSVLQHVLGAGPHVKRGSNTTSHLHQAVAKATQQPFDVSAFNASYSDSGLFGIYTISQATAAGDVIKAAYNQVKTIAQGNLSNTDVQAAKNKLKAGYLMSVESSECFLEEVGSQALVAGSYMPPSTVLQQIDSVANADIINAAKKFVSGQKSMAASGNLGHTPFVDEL
UniProt P47985, residues 79-274: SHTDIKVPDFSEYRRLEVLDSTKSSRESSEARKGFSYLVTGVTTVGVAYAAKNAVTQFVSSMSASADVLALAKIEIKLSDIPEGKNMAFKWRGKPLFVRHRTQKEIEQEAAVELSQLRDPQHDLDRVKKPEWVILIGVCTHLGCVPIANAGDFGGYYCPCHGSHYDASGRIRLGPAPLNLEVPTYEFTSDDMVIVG

For assay [1], the target named is UQCRC2 (endogenous), complex III core component (human (endogenous in HeLa, HCT116, PEA1)) (UniProt P22695). Nature of the assay: proximity ligation; Duolink in situ PLA on fixed, permeabilised HeLa cells (control, TRAP1-GFP expressing, shGFP/shTRAP1); standard medium, galactose in place of glucose (4.5 g/L) for 4 h, or low glucose (1 g/L) for 4 h.
For assay [2], the target named is UQCRFS1/Rieske protein (endogenous), catalytic subunit of complex III (human (endogenous in HeLa, PEA1)) (UniProt P47985). The assay is described as above.
Assay [3] has the same target. Kind of assay: proximity ligation; Duolink in situ PLA on fixed, permeabilised PEA1 cells; negative control with TRAP1 antibody only.

As for “UQCRFS1/Rieske protein (endogenous), catalytic subunit of complex III (from UniProt P47985 79-274)”, the binding entry in assay [1] is “binds”.

B1: TRAP1 (endogenous) (protein, UniProt Q12931 60-704)
chain: STQTAEDKEEPLHSIISSTESVQGSTSKHEFQAETKKLLDIVARSLYSEKEVFIRELISNASDALEKLRHKLVSDGQALPEMEIHLQTNAEKGTITIQDTGIGMTQEELVSNLGTIARSGSKAFLDALQNQAEASSKIIGQFGVGFYSAFMVADRVEVYSRSAAPGSLGYQWLSDGSGVFEIAEASGVRTGTKIIIHLKSDCKEFSSEARVRDVVTKYSNFVSFPLYLNGRRMNTLQAIWMMDPKDVREWQHEEFYRYVAQAHDKPRYTLHYKTDAPLNIRSIFYVPDMKPSMFDVSRELGSSVALYSRKVLIQTKATDILPKWLRFIRGVVDSEDIPLNLSRELLQESALIRKLRDVLQQRLIKFFIDQSKKDAEKYAKFFEDYGLFMREGIVTATEQEVKEDIAKLLRYESSALPSGQLTSLSEYASRMRAGTRNIYYLCAPNRHLAEHSPYYEAMKKKDTEVLFCFEQFDELTLLHLREFDKKKLISVETDIVVDHYKEEKFEDRSPAAECLSEKETEELMAWMRNVLGSRVTNVKVTLRLDTHPAMVTVLEMGAARHFLRMQQLAKTQEERAQLLQPTLEINPRHALIKKLNQLRASEPGLAQLLVDQIYENAMIAAGLVDDPRAMVGRLNELLVKALERH
With B1, the binding entry in assay [2] and in assay [3] was “no binding” throughout.

For the origin of these results see paper PMC9743594.
